Assay results as given in patent EP1358888A1, “The human peptide antibiotic LL-37/hCAP-18 is an inducer of angiogenesis” (Bals, Robert, priority 2002, dated 2003).
Part of at least one peptide drawing is inferred or uncertain, most often the ends.

System: HUVECs
Test: In vitro proliferation assay (cell count after 72 h)
Type: cell-based, human
Conditions: HUVEC, serum free medium, cells counted after 72 h

CSCC[C@H](NC(=O)[C@H](Cc1ccc(O)cc1)NC(=O)[C@H](CCCCN)NC(=O)[C@@H](N)Cc1c[nH]c2ccccc12)C(=O)N[C@H](C(=O)N[C@H](CCSC)C(=O)O)C(C)C [WKYMVm]
endothelial proliferation: stimulated proliferation of endothelial cells
